Laboratory results taken from PMC11844276.

By UniProt entry, the sequences of proteins in these tests, tags left out.
UniProt Q8K019: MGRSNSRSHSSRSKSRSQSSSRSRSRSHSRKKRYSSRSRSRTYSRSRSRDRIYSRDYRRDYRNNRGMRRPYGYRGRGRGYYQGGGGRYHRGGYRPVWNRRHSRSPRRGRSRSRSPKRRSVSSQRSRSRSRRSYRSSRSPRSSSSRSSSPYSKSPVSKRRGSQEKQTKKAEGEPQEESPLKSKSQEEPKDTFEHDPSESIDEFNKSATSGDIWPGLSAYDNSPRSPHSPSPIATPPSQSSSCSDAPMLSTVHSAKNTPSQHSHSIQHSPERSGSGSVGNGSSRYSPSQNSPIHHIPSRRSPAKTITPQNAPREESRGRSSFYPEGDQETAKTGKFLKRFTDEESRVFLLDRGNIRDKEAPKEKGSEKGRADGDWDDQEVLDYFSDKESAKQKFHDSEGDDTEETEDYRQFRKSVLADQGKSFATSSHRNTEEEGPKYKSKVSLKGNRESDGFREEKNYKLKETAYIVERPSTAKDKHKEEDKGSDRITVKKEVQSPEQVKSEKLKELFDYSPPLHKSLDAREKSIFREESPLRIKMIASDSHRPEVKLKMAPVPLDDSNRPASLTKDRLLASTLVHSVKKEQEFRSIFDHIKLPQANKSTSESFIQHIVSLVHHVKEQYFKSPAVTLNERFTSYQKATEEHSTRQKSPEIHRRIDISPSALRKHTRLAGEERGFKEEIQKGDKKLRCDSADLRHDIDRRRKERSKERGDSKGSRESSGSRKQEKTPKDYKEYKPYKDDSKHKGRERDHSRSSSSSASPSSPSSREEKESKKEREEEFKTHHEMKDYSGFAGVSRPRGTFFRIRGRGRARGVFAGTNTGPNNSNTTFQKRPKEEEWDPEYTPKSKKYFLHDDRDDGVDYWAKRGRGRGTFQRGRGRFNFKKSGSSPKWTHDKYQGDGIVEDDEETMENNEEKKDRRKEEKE
UniProt Q9JHS3: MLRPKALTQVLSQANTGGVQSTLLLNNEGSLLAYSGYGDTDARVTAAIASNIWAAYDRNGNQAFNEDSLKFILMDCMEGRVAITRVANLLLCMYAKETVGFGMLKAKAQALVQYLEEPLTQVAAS

Molecular target: B-cell lymphoma-2-associated transcription factor 1 (BCLAF1), Flag-tagged (UniProt Q8K019)
Test: affinity purification with mass spectrometry; immunoprecipitation of BCLAF1 from NP-40 lysate of mouse primary chondrocytes on protein A/G magnetic beads with antibody, overnight at 4 °C; immunoprecipitates subjected to protein mass spectrometry

binding: binds
Substance: Ragulator complex protein LAMTOR2 (late endosomal/lysosomal adaptor and MAPK and MTOR activator 2), endogenous (from UniProt Q9JHS3 1-125)

Results are given in words; binding and its absence hold for the method and conditions named. Binding seen in cells or lysates may run through a third protein. Here binding means that the protein was enriched with, or labelled near, the bait; the list need not be complete.
